The values below come from ChEMBL document CHEMBL4303122, “Identification of potential treatments for COVID-19 through artificial intelligence-enabled phenomic analysis of human cells infected with SARS-CoV-2” (2020).

Each structure is given as a SMILES string. Whole data set: some 1,600 compounds, median “Hit score” near 0.13, cut for the highest 2% near 0.46. Some of the results follow.

This experiment concerns SARS-CoV-2. Nature of the experiment: Antiviral activity against SARS-CoV-2 (USA-WA1/2020 strain) measured by imaging in HRCE cells at MOI 0.4 after 96 hrs (reported as hit score from 0-1 for on-disease vs off-disease activity: scores >0.6 considered hits). The experiment is classed as functional, Homo sapiens.
In turn, `CNC(=O)c1ccc(N2C(=S)N(c3ccc(C#N)c(C(F)(F)F)c3)C(=O)C2(C)C)cc1F` [ENZALUTAMIDE] registered a Hit score of 0.1121. As for `CCN(CC)C(=O)Nc1ccc(OCC(O)CNC(C)(C)C)c(C(C)=O)c1` (configuration not stated) [CELIPROLOL], the Hit score turned out to be 0.5089. In the case of `CCN(CC)CCOCCOC(=O)C1(c2ccccc2)CCCC1` [CARBETAPENTANE] it was 0.04213. For the compound `CC#CCn1c(N2CCC[C@@H](N)C2)nc2c1c(=O)n(Cc1nc(C)c3ccccc3n1)c(=O)n2C` [LINAGLIPTIN], the Hit score is recorded as 0.0767. Take `CC(C)(CO)[C@@H](O)C(=O)NCCC(=O)O` [PANTOTHENIC ACID]: the Hit score is 0.1559. `CCN(CCCCOC(=O)c1ccc(OC)c(OC)c1)C(C)Cc1ccc(OC)cc1` (configuration not stated) [MEBEVERINE] gave a Hit score of 0.1457. Consider `C[C@H]1NCc2cc(-c3ccc4c(=O)c(C(=O)O)cn(C5CC5)c4c3OC(F)F)ccc21` [GARENOXACIN], for which the Hit score amounted to 0.1309. `Nc1nc(=O)n([C@@H]2CS[C@H](CO)O2)cc1F` [EMTRICITABINE] had a Hit score of 0.1635. In the case of `Cc1onc(-c2c(Cl)cccc2Cl)c1C(=O)N[C@@H]1C(=O)N2[C@@H]1SC(C)(C)[C@@H]2C(=O)O` [DICLOXACILLIN], the Hit score was 0.1116.

Take `CC(O)c1cc(C(=O)N[C@@H](C)Cn2ccc(-c3ccc(C#N)c(Cl)c3)n2)n[nH]1` (some centres not stated) [DAROLUTAMIDE]: the Hit score came out at 0.2258. The compound `CCN(CC)C(=O)N[C@H]1C[C@@H]2c3cccc4[nH]cc(c34)C[C@H]2N(C)C1` [TERGURIDE] returned a Hit score of 0.113. For `CO[C@H]1C[C@@H]2CC[C@@H](C)[C@@](O)(O2)C(=O)C(=O)N2CCCC[C@H]2C(=O)O[C@H]([C@H](C)C[C@@H]2CC[C@@H](O)[C@H](OC)C2)CC(=O)[C@H](C)/C=C(\C)[C@@H](O)[C@@H](OC)C(=O)[C@H](C)C[C@H](C)/C=C/C=C/C=C/1C` [SIROLIMUS], the Hit score is on record as 0.6828. For the compound `CC(=O)OCC1=C(C(=O)O)N2C(=O)[C@@H](NC(=O)Cc3cccs3)[C@H]2SC1` [CEPHALOTHIN], the Hit score is 0.1524. The compound `Cc1nc(C(=O)NCC(=O)O)c(O)c2ccc(Oc3ccccc3)cc12` [ROXADUSTAT] yielded a Hit score of 0.4477. With `COc1cc(NS(=O)(=O)c2ccc(N)cc2)ncn1` [SULFAMONOMETHOXINE], the Hit score is reported as 0.1552. In the case of `CN(C(=O)CN(CCO)CC(=O)N(C)C(C)(C)Cc1ccccc1)C(C)(C)Cc1ccccc1` [OXETHAZAINE], the Hit score is listed as -0.01116. Turning to `CC(C)(Oc1ccc(Cl)cc1)C(=O)OCCOC(=O)c1cccnc1` [ETOFIBRATE], the Hit score is given as 0.05283. Compound `COC(=O)N/N=C/c1c[n+]([O-])c2ccccc2[n+]1[O-]` [CARBADOX] registered a Hit score of 0.1317. With `O=C(Nc1cnn2ccc(N3CCC[C@@H]3c3cc(F)ccc3F)nc12)N1CC[C@H](O)C1` [LAROTRECTINIB], the Hit score was 0.1325.

`CN1CCN2c3ncccc3Cc3ccccc3C2C1` (configuration not stated) [MIRTAZAPINE] displayed a Hit score of 0.02738.

On to `CC(C)[C@H](N)C(=O)OCCOCn1cnc2c(=O)nc(N)[nH]c21` [VALACYCLOVIR], for which the Hit score was found to be 0.03059. As to `CC1=NN(c2ccc(C)c(C)c2)C(=O)/C1=N\Nc1cccc(-c2cccc(C(=O)O)c2)c1O` [ELTROMBOPAG], the Hit score is given as 0.1261.

`COC(=O)[C@@H]1CC2=CC(=O)CC[C@]2(C)[C@@]23O[C@@H]2C[C@@]2(C)[C@@H](CC[C@@]24CCC(=O)O4)[C@H]13` [EPLERENONE]: the Hit score worked out at 0.07583. As to `CCn1c(=O)c2c(nc(/C=C/c3ccc(OC)c(OC)c3)n2C)n(CC)c1=O` [ISTRADEFYLLINE], the Hit score was 0.1372. On to `C[N+]1(C)[C@@H]2C[C@@H](OC(=O)C(O)(c3cccs3)c3cccs3)C[C@H]1[C@@H]1O[C@@H]12` [TIOTROPIUM], for which the Hit score is given as 0.1855.

The compound `O=C(/C=C/c1ccc(O)c(O)c1)O[C@H](Cc1ccc(O)c(O)c1)C(=O)O` [ROSMARINIC ACID] gave a Hit score of 0.1856. For `COc1ccc(-c2cc(=O)c3c(O)c(OC)c(O)cc3o2)cc1OC` [EUPATILIN], the Hit score was found to be 0.2352. In turn, `O=C(NCCCN1CCOCC1)c1ccc(Cl)cc1` [EPROBEMIDE] yielded a Hit score of 0.09412. `COc1cc(CNC(=O)CCCC/C=C/C(C)C)ccc1O` [CAPSAICIN]: the Hit score is on record as 0.1538.

As for `CC(=O)Nc1nnc(S(N)(=O)=O)s1` [ACETAZOLAMIDE], the Hit score is given as 0.1016. In the case of `Cc1cc2cc3c(C)cc(=O)oc3c(C)c2o1` [TRIOXSALEN] it was 0.006457; in that of `CC(C)Oc1ccc2c(=O)c(-c3ccccc3)coc2c1` [IPRIFLAVONE], 0.1596; in that of `Clc1ccc2nsnc2c1NC1=NCCN1` [TIZANIDINE], 0.1488. In turn, `O=S(=O)(O)c1ccc2[nH]c(-c3ccccc3)nc2c1` [ENSULIZOLE] registered a Hit score of 0.1842.

Turning to `CCCCOc1cc(C(=O)OCCN(CC)CC)ccc1N` [BENOXINATE], the Hit score amounted to 0.147.

`N#C/C(=C1/SC[C@@H](c2ccc(Cl)cc2Cl)S1)n1ccnc1` [LULICONAZOLE] came in with a Hit score of 0.09705.

`CCCCC(=O)O[C@H]1CC[C@H]2[C@@H]3CCc4cc(O)ccc4[C@H]3CC[C@]12C` [ESTRADIOL VALERATE] returned a Hit score of -0.001889.

In turn, `CCCCCCOc1ccccc1C(N)=O` [EXALAMIDE] came in with a Hit score of 0.1514. Consider `CC(=O)Nc1c(I)c(C(=O)N[C@H]2C(O)O[C@H](CO)[C@@H](O)[C@@H]2O)c(I)c(N(C)C(C)=O)c1I` (some centres not stated) [METRIZAMIDE], for which the Hit score is 0.08821. Under `Cc1c(-c2ccc(O)cc2)n(Cc2ccc(OCCN3CCCCCC3)cc2)c2ccc(O)cc12` [BAZEDOXIFENE] stands 0.1195. Under `CCc1cc2c(cc1CC)CC(NC[C@H](O)c1ccc(O)c3[nH]c(=O)ccc13)C2` [INDACATEROL] stands -0.2891; under `O=[N+]([O-])O[C@@H]1CO[C@H]2[C@@H]1OC[C@@H]2O` [ISOSORBIDE MONONITRATE], 0.1018; under `CC(C)OC(=O)OCOP(=O)(CO[C@H](C)Cn1cnc2c(N)ncnc21)OCOC(=O)OC(C)C.O=C(O)/C=C/C(=O)O` [TENOFOVIR DISOPROXIL FUMARATE], 0.2849. Take `Cc1ccc(-c2cc(C(F)(F)F)nn2-c2ccc(S(N)(=O)=O)cc2)cc1` [CELECOXIB]: the Hit score turned out to be 0.04185. For the compound `O=C(O)c1cccc(-c2noc(-c3ccccc3F)n2)c1`, the Hit score was determined as 0.2151. For `CC(CNC1CCCCC1)OC(=O)c1ccccc1` (configuration not stated) [HEXYLCAINE], the Hit score is reported as 0.1991. Consider `CN[C@H]1CC[C@@H](c2ccc(Cl)c(Cl)c2)c2ccccc21` [SERTRALINE], for which the Hit score was 0.01994.

With `CN1CCc2nc(C(=O)N[C@@H]3C[C@@H](C(=O)N(C)C)CC[C@@H]3NC(=O)C(=O)Nc3ccc(Cl)cn3)sc2C1` [EDOXABAN], the Hit score turned out to be 0.1963. As to `CC(C)NCC(O)c1ccc([N+](=O)[O-])cc1` (configuration not stated) [NIFENALOL], the Hit score came out at 0.2196. `CC[C@H]1OC(=O)[C@H](C)[C@@H](O[C@H]2C[C@@](C)(OC)[C@@H](O)[C@H](C)O2)[C@H](C)[C@@H](O[C@@H]2O[C@H](C)C[C@H](N(C)C)[C@H]2O)[C@](C)(O)C[C@@H](C)CN(C)[C@H](C)[C@@H](O)[C@]1(C)O` [AZITHROMYCIN] gave a Hit score of 0.3754. `C[C@@H]1CCC[C@H](C)N1NC(=O)c1ccc(Cl)c(S(N)(=O)=O)c1` [CLOPAMIDE] gave a Hit score of 0.2705. `CCOC(=O)[C@H]1O[C@@H]1C(=O)N[C@@H](CC(C)C)C(=O)NCCC(C)C` [ALOXISTATIN]: the Hit score worked out at 0.7896.

The compound `CC(C)NCC(O)COc1ccc(CC(N)=O)cc1` (configuration not stated) [ATENOLOL] returned a Hit score of 0.2303. For `C[C@]12CC[C@H](O)CC1=CC[C@@H]1[C@@H]2CC[C@]2(C)C(c3cccnc3)=CC[C@@H]12` [ABIRATERONE], the Hit score is listed as 0.3975.

With `COc1ccccc1OC(=O)c1ccccc1OC(C)=O` [GUACETISAL], the Hit score worked out at 0.1414. With `O=C(O)CC(S)C(=O)O` (configuration not stated), the Hit score was 0.06746. The compound `Cn1c(=O)c2c(ncn2CC2OCCO2)n(C)c1=O` [DOXOFYLLINE] registered a Hit score of 0.06006. Turning to `COC(=O)Nc1nc2cc(Sc3ccccc3)ccc2[nH]1` [FENBENDAZOLE], the Hit score was 0.2076. `CN(CCCCCCCCCCN(C)C(=O)Oc1cccc([N+](C)(C)C)c1)C(=O)Oc1cccc([N+](C)(C)C)c1` gave a Hit score of 0.1597. As to `CC(=O)N(CC(O)CO)c1c(I)c(C(=O)NCC(O)CO)c(I)c(C(=O)NCC(O)CO)c1I` (configuration not stated) [IOHEXOL], the Hit score turned out to be 0.2283. Under `CN1CCN(CC(=O)N2c3ccccc3C(=O)Nc3cccnc32)CC1` [PIRENZEPINE] stands 0.1961; under `Cn1c(CCCC(=O)O)nc2cc(N(CCCl)CCCl)ccc21` [BENDAMUSTINE], 0.07328; under `CC(C)(C)c1cc(C(C)(C)C)c(NC(=O)c2c[nH]c3ccccc3c2=O)cc1O` [IVACAFTOR], 0.04666. Under `Cc1ccc([C@@H]2O[C@H](CO)[C@@H](O)[C@H](O)[C@H]2O)cc1Cc1ccc(-c2ccc(F)cc2)s1` [CANAGLIFLOZIN ANHYDROUS] stands 0.2292. Compound `Nc1ncnc2c1ncn2[C@@H]1O[C@H](CO)[C@@H](O)[C@@H]1O` [VIDARABINE] returned a Hit score of -0.02251. `C1CNCCN1.C[C@]12CC[C@@H]3c4ccc(OS(=O)(=O)O)cc4CC[C@H]3[C@@H]1CCC2=O` [ESTROPIPATE]: the Hit score was found to be 0.1464. The compound `COc1cc2ncnc(Nc3ccc(F)c(Cl)c3)c2cc1NC(=O)/C=C/CN1CCCCC1.O` [DACOMITINIB] showed a Hit score of -0.155.
